The list shows a part of the results. Further columns of the screen follow, without active or inactive calls. Compounds called inactive in the main read-out are mostly missing here. Potencies come from curve fits of mixed quality, noted in brackets.
Assay: qHTS Assay to Find Inhibitors of Chronic Active B-Cell Receptor Signaling
Conditions: ABC-DLBCL IkBa-CBG/CBR reporter, luminescence ratio (green luciferase fused to IkBa over red control in TMD8 lymphoma cells), 4 h
In short: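 Compounds up to 46 uM were incubated four hours with TMD8 cells whose green CBG68 luciferase is fused to IkappaBalpha; red CBR luminescence normalised the signal, and concentration-effect curves were fitted to fusion, red and ratio data.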

[1] = measured here: CBR red luminescence, cell number
[2] = measured here: IkBa-CBG green luminescence

Structure (SMILES) | AC50 [1] | AC50 [2]
CCn1c(C(=O)O)c(CC(=O)Nc2cccc(C(F)(F)F)c2)c2ccccc21 | 6.31 µM [rising, single point] | 
Cc1nc2ccc(-c3nc4cc(N)ccc4o3)cc2[nH]1 | 16.4 µM [falling, partial curve, poor fit] | 
CCCc1ccc2oc(C(=O)NCCCN3CCOCC3)c(C)c2c1 | 11.2 µM [rising, partial curve] | 
C=C(C)COc1ccc(-c2nc(N)ncc2Oc2ccccc2OC)c(O)c1 | 10 µM [rising, partial curve, poor fit] | 
Cc1ccc(NC(=O)C2CCCN(C(=O)c3ccc(Cl)cc3)C2)cc1C (configuration not stated) | 0.447 µM [rising, full curve, poor fit] | 
CN(C)N=Nc1ccc(-c2cn(Cc3ccccc3)cn2)cc1 | 8.91 µM [rising, partial curve] | 
Cc1sc(NC(=O)c2ccccc2)c(C(c2ccc(Cl)cc2)N2CCN(CCO)CC2)c1C (configuration not stated) | 29.1 µM [falling, single point] | 
CCc1nnc(NC(=O)c2c(O)c3cccc4c3n(c2=O)CC4)s1 | 13 µM [falling, partial curve, poor fit] | 
O=C(CSc1ccc(F)cc1)NNC(=O)c1ccccc1Br | 35.5 µM [falling, single point] | 
Nc1nonc1-n1nnc(C(=O)N/N=C/c2ccncc2)c1CSc1ccccc1 | 20 µM [falling, single point] | 
CC(=O)N1CN(Cc2ccccn2)Cc2c1sc1c2CCCC1 | 29.1 µM [rising, single point] | 29.1 µM [falling, single point]
CC(NC(=O)COC(=O)c1cc(Cl)nc(Cl)c1)c1ccccc1 (configuration not stated) | 12.6 µM [rising, single point] | 
Cc1ccc(C2=NN(CCC#N)C(=O)CO2)cc1 | 35.5 µM [rising, single point] | 
Cc1ccc(S(=O)(=O)NC(=NCc2ccccc2)c2ccc(F)cc2)cc1 | 5.01 µM [falling, partial curve, poor fit] | 
COc1ccc2c(=O)c3c(=O)n(Cc4ccco4)c(-c4ccccc4)nc3oc2c1 | 3.66 µM [falling, partial curve] | 
Cc1ccc(Cl)cc1N1CCN(C(=O)c2noc(C(C)C)c2[N+](=O)[O-])CC1 | 8.91 µM [falling, partial curve] | 
Cc1cccnc1NC(=O)Cn1nc(-c2ccccc2)oc1=S | 13 µM [falling, partial curve] | 
COc1cccc(C(=O)N/N=C(/CCC(=O)O)c2ccccc2)c1 | 1.84 µM [falling, full curve] | 
COC(=O)Cn1cnc2c(nnn2-c2ccc(C)cc2)c1=O | 4.11 µM [falling, single point] | 
CS(=O)(=O)c1cccc(C(=O)Nc2ccc3c(c2)OCCCO3)c1 | 35.5 µM [falling, single point] | 
COc1ccc(Br)cc1/C=N/NC(=O)c1cc(Br)ccc1O | 1.41 µM [falling, full curve, poor fit] | 

Part of the list above, set out differently:

| Structure (SMILES) | AC50 [1] | AC50 [2] |
| --- | --- | --- |
| CCn1c(C(=O)O)c(CC(=O)Nc2cccc(C(F)(F)F)c2)c2ccccc21 | 6.31 µM [rising, single point] |  |
| Cc1nc2ccc(-c3nc4cc(N)ccc4o3)cc2[nH]1 | 16.4 µM [falling, partial curve, poor fit] |  |
| C=C(C)COc1ccc(-c2nc(N)ncc2Oc2ccccc2OC)c(O)c1 | 10 µM [rising, partial curve, poor fit] |  |
| Cc1ccc(NC(=O)C2CCCN(C(=O)c3ccc(Cl)cc3)C2)cc1C (configuration not stated) | 0.447 µM [rising, full curve, poor fit] |  |
| CN(C)N=Nc1ccc(-c2cn(Cc3ccccc3)cn2)cc1 | 8.91 µM [rising, partial curve] |  |
| CCc1nnc(NC(=O)c2c(O)c3cccc4c3n(c2=O)CC4)s1 | 13 µM [falling, partial curve, poor fit] |  |
| O=C(CSc1ccc(F)cc1)NNC(=O)c1ccccc1Br | 35.5 µM [falling, single point] |  |
| CC(=O)N1CN(Cc2ccccn2)Cc2c1sc1c2CCCC1 | 29.1 µM [rising, single point] | 29.1 µM [falling, single point] |
| Cc1ccc(C2=NN(CCC#N)C(=O)CO2)cc1 | 35.5 µM [rising, single point] |  |
| Cc1ccc(S(=O)(=O)NC(=NCc2ccccc2)c2ccc(F)cc2)cc1 | 5.01 µM [falling, partial curve, poor fit] |  |
| Cc1cccnc1NC(=O)Cn1nc(-c2ccccc2)oc1=S | 13 µM [falling, partial curve] |  |
| COc1cccc(C(=O)N/N=C(/CCC(=O)O)c2ccccc2)c1 | 1.84 µM [falling, full curve] |  |
| COC(=O)Cn1cnc2c(nnn2-c2ccc(C)cc2)c1=O | 4.11 µM [falling, single point] |  |
| COc1ccc(Br)cc1/C=N/NC(=O)c1cc(Br)ccc1O | 1.41 µM [falling, full curve, poor fit] |  |

Next part

Structure (SMILES) | AC50 [1] | AC50 [2]
Cc1ccc(NC(=O)CN2C(=O)NC3(CCCc4ccccc43)C2=O)cc1S(=O)(=O)N1CCOCC1 (configuration not stated) | 12.6 µM [falling, single point] | 
COc1ccccc1-c1cn(S(=O)(=O)c2ccc(F)cc2)nc1N | 11.2 µM [falling, partial curve] | 
COc1ccc(/C=C2\SC(=S)N(CCCC(=O)Nc3ccc(C(=O)O)cc3)C2=O)cc1OC | 1.58 µM [falling, full curve, poor fit] | 
Nc1nc(-c2ccc([N+](=O)[O-])cc2)c(C(=O)Nc2ccc(Cl)cc2)s1 | 5.62 µM [rising, single point] | 
COCCCNC(=O)c1cc2c(-c3cccc(OC)c3)nn(C)c2s1 | 15.8 µM [falling, single point] | 
CCOc1ncccc1C(=O)Nc1ccc(C)cn1 | 15.8 µM [rising, partial curve, poor fit] | 
CCOC(=O)c1c(C)[nH]c(C(=O)COC(=O)/C=C/c2cccc(OC)c2OC)c1C | 0.326 µM [rising, full curve] | 
CC(C)[C@@H](C(=O)NC1CCN(Cc2ccccc2)CC1)N1C(=O)N2CCc3c([nH]c4ccccc34)[C@@]2(C)C1=O | 14.1 µM [falling, partial curve, poor fit] | 14.1 µM [rising, partial curve, poor fit]
Oc1ccccc1-c1cc(-c2ccco2)[nH]n1 | 5.17 µM [falling, full curve, poor fit] | 
Cc1ccc(C(=O)NC(C)CCc2ccccc2)cc1[N+](=O)[O-] (configuration not stated) | 3.55 µM [rising, partial curve, poor fit] | 
COC(=O)CSc1nnc(COc2ccc3ccccc3c2)o1 | 15.8 µM [falling, single point] | 
CC(=O)Nc1ccc(C(=O)N(C)C(C(=O)Nc2ccccc2)c2ccccn2)cc1 (configuration not stated) | 18.4 µM [rising, single point] | 
COc1cccc(C(=O)Nc2nc3ccccc3s2)c1 | 3.98 µM [falling, full curve] | 
CCOc1ccc(C(=O)O/N=C(\N)c2ccccn2)cc1OCC | 6.31 µM [falling, partial curve] | 
Cc1ccc(C(=O)c2oc3ccccc3c2NC(=O)c2cc(-c3cc(C)ccc3O)n[nH]2)cc1 | 3.16 µM [rising, single point] | 
Cn1cc(CNC(=O)C2c3ccccc3Oc3ccccc32)cn1 | 6.31 µM [falling, single point] | 
Cc1oc(/C=N/NC(=O)CN(c2ccccc2Br)S(C)(=O)=O)cc1Br | 1.26 µM [falling, full curve, poor fit] | 
C/C(=N\Nc1ncc(Cl)cc1Cl)c1cccs1 | 14.1 µM [falling, partial curve] | 25.1 µM [falling, single point]
CCOC(=O)/C=c1\s/c(=C(\C#N)C(=O)NC)n(-c2ccccc2)c1=O | 6.31 µM [falling, single point] | 
COC(=O)Cc1csc(Nc2ccc(F)c(Cl)c2)n1 | 0.891 µM [rising, partial curve, poor fit] | 
COc1cc2c(cc1OC)[C@@H](NC(=O)Cc1ccc(F)cc1)[C@H](OCc1ccccc1)C2 | 2.91 µM [rising, partial curve, poor fit] | 

Structure (SMILES) | AC50 [1] | AC50 [2]
C=CCn1c(SCc2cc(C(=O)OC)c(C)o2)nnc1-c1ccncc1 | 35.5 µM [falling, partial curve, poor fit] | 
Cc1nc(C(=O)NC(C)C)nn1-c1cc(Cl)cc(Cl)c1 | 2.51 µM [rising, partial curve, poor fit] | 
COc1ccc(NC2=C(Cl)C(=O)N(c3ccccc3)C2=O)c(OC)c1 | 10 µM [falling, partial curve] | 
C=CCN1C=C2C(=O)C(C)(OC(=O)CCc3ccccc3)C(=O)C=C2C=C1c1ccc(C#N)cc1 (configuration not stated) | 8.91 µM [rising, partial curve] | 
Clc1ccc(-n2ncc3c(N4CCCC4)ncnc32)cc1 | 0.731 µM [rising, full curve] | 
Cc1cc(O)c(C(C)C)cc1NC(=O)c1ccccc1Cl | 20.6 µM [rising, partial curve, poor fit] | 
COC(=O)C1=C(C)N(c2ccc(OC)c(OC)c2)C(=O)C1 | 7.08 µM [falling, partial curve] | 
Cc1c(NC(=O)c2c(NC(=O)CNC3CC3)sc3c2CCCC3)c(=O)n(-c2ccccc2)n1C | 29.1 µM [falling, single point] | 
Clc1ccccc1OCCn1cnc2ccccc21 | 5.01 µM [rising, full curve, poor fit] | 
CCC(=O)NCCn1c(C)cc2ccccc21 | 20.6 µM [rising, partial curve, poor fit] | 
O=C(N1CCN(c2ccccn2)CC1)N1c2ccccc2Sc2ccccc21 | 25.9 µM [rising, single point] | 6.51 µM [falling, partial curve, poor fit]
Cc1nc(Nc2cccc(F)c2)c2oc3ccccc3c2n1 | 5.01 µM [falling, partial curve, poor fit] | 
COc1ccc([C@]23Cc4cc(OC)c(OC)cc4C(O2)c2c(cc(C)n(Cc4ccccc4)c2=O)O3)cc1 | 6.31 µM [rising, single point] | 
Cc1ccc(C(=O)Nc2ccc3ccccc3c2)cc1 | 20 µM [falling, single point] | 
O=C(CCc1nc2ccccc2s1)OCC(=O)c1ccccc1 | 7.31 µM [rising, partial curve] | 
COc1cccc(/C=N/Nc2snc(SC)c2C#N)c1O | 9.2 µM [falling, partial curve] | 
Cc1cc(-n2c(C)cc(C(=O)CSc3[nH]c(=O)cc(C(F)(F)F)c3C#N)c2C)no1 | 29.1 µM [falling, single point] | 
COc1ccc(C(=O)NCc2ccc3c(c2)CCN3C(C)=O)c(OC)c1 | 6.31 µM [falling, single point] | 
COc1ccc(CN2CCCCC2C(=O)Nc2ccc(OC)c(OC)c2)cc1OC (configuration not stated) | 20 µM [rising, partial curve, poor fit] | 
CSCCC(=O)N1CCCC(CNC(=O)c2ccccc2Cl)C1 (configuration not stated) | 35.5 µM [falling, single point] | 
NC(=O)N/N=C/c1ccc2cccc(OCc3ccccc3)c2n1 | 15.8 µM [falling, partial curve, poor fit] | 

From PubChem BioAssay AID493014 (National Center for Advancing Translational Sciences (NCATS), 2011)
